In the supplement of paper PMC10849652:
Some of the results follow.

Protein sequences, listed by entry. Tags and fused reporters are not part of them. Lines headed by an entry give the natural chain unless they say otherwise; changes in a name come on top.
UniProt Q3ZAQ7: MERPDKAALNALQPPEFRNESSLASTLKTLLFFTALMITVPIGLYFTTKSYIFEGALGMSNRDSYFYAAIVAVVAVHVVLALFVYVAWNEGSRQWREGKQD
UniProt O00308: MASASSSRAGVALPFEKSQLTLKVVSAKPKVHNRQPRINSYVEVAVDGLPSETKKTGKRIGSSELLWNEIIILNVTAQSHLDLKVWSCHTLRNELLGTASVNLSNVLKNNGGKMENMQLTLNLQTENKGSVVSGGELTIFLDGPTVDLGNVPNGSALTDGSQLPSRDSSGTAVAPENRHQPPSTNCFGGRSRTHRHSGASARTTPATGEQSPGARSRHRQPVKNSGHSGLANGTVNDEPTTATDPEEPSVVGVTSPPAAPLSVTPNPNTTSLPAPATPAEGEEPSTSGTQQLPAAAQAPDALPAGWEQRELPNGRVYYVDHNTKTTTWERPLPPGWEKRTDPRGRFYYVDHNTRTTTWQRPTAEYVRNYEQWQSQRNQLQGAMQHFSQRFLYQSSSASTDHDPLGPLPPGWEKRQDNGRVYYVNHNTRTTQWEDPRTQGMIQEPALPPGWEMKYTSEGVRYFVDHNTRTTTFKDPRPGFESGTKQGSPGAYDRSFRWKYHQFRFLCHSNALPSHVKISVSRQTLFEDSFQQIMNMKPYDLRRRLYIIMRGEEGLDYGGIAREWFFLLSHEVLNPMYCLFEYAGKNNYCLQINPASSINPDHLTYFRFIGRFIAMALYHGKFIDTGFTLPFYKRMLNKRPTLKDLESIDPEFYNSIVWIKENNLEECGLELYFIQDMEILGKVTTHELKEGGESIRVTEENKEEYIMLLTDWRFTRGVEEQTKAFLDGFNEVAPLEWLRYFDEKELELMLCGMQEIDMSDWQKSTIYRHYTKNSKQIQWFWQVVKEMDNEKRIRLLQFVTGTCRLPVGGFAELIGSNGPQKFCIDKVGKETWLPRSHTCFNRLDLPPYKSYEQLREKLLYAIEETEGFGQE
UniProt Q9BTA9: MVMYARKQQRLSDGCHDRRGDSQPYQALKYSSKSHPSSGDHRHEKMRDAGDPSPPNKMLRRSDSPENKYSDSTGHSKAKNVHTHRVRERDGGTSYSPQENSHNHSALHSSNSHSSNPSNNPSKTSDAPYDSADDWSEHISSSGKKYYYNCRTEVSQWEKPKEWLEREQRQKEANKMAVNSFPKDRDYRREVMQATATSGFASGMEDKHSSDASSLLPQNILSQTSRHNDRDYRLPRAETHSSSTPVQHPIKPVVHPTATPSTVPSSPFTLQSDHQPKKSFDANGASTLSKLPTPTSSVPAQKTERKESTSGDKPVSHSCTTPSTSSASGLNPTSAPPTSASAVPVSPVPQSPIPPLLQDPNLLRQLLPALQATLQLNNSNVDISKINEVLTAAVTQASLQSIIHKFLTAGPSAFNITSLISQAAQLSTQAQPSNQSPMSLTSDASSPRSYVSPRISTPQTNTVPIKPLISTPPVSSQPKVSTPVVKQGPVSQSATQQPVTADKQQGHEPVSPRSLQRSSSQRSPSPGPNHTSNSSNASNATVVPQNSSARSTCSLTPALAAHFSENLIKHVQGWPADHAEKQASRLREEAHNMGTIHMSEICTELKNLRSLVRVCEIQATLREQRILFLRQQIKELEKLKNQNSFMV
UniProt Q96RL7: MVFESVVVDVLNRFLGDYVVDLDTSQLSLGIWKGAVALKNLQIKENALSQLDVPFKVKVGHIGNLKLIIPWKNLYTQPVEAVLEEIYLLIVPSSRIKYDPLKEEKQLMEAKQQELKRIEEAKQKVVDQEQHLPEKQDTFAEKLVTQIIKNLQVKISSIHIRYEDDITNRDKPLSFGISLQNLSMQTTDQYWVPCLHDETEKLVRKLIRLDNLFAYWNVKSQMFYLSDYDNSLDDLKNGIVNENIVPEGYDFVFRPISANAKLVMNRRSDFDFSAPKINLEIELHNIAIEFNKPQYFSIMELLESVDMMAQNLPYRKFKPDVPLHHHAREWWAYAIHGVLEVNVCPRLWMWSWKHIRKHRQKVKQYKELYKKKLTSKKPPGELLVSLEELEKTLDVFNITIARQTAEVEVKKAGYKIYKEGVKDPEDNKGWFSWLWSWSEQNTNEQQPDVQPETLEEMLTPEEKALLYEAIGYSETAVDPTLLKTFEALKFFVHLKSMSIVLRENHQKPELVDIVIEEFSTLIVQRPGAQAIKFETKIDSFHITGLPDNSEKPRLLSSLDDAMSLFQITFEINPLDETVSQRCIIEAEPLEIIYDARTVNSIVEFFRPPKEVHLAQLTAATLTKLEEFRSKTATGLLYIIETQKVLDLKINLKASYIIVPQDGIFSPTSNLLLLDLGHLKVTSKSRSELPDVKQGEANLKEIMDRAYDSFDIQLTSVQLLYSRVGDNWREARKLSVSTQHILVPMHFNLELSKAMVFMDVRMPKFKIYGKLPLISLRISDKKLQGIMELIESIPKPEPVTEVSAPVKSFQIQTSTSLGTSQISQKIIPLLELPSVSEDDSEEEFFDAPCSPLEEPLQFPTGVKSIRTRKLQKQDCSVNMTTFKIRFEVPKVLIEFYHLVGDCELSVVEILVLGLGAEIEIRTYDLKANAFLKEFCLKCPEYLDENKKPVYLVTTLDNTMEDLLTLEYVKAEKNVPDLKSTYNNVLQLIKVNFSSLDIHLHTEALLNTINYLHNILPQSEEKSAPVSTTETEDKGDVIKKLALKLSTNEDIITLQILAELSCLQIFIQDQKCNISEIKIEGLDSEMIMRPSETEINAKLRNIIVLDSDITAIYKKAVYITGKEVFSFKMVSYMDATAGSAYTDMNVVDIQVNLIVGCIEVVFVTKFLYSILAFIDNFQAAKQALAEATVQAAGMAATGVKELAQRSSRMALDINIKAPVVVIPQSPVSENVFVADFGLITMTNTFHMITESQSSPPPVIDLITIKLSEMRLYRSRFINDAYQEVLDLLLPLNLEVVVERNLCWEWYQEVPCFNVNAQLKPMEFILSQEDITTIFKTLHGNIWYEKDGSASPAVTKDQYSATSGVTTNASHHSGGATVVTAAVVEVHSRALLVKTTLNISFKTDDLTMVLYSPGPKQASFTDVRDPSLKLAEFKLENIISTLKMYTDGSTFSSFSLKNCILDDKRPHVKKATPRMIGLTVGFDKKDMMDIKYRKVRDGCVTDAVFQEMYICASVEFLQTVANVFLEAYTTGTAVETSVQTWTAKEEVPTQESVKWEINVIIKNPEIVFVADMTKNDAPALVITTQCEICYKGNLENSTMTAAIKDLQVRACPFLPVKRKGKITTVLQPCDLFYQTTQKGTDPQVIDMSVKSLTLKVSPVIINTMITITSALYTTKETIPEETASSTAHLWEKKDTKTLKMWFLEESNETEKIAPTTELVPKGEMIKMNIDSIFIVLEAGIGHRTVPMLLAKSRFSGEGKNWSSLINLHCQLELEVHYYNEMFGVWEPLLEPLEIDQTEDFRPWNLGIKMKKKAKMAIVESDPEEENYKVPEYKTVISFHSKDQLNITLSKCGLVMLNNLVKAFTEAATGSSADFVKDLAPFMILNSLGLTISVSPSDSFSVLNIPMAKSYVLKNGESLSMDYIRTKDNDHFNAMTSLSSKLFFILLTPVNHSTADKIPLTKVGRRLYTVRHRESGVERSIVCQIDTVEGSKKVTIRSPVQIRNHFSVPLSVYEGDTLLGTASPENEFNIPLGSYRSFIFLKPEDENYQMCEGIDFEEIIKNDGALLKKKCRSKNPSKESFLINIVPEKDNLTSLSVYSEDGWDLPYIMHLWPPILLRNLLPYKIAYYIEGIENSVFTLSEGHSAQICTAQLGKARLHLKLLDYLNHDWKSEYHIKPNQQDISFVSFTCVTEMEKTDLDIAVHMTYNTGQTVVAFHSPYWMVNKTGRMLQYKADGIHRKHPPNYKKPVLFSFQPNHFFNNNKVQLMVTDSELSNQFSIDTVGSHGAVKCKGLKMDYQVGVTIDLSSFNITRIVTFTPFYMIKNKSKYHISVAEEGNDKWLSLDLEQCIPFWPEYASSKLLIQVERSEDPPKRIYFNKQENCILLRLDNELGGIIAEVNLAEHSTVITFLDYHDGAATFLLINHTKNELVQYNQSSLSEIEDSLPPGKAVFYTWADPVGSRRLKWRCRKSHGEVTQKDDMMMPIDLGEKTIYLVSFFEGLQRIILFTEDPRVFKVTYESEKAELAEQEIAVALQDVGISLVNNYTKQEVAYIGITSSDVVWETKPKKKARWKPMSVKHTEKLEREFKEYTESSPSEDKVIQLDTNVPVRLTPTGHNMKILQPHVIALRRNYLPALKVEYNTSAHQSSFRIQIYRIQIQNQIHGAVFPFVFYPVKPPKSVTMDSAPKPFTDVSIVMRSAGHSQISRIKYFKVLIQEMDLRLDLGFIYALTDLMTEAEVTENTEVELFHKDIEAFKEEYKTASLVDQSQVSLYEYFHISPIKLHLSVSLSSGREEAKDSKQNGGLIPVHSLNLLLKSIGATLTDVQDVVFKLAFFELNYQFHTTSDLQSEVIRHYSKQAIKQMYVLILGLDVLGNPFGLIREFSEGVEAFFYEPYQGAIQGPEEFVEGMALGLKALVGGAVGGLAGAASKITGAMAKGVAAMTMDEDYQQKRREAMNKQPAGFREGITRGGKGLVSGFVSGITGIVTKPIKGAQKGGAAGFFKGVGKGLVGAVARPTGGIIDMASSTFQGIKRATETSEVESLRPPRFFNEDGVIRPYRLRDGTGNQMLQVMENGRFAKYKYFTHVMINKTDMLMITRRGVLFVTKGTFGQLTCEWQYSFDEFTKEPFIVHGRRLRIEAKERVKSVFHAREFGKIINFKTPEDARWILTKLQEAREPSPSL
UniProt Q96J92: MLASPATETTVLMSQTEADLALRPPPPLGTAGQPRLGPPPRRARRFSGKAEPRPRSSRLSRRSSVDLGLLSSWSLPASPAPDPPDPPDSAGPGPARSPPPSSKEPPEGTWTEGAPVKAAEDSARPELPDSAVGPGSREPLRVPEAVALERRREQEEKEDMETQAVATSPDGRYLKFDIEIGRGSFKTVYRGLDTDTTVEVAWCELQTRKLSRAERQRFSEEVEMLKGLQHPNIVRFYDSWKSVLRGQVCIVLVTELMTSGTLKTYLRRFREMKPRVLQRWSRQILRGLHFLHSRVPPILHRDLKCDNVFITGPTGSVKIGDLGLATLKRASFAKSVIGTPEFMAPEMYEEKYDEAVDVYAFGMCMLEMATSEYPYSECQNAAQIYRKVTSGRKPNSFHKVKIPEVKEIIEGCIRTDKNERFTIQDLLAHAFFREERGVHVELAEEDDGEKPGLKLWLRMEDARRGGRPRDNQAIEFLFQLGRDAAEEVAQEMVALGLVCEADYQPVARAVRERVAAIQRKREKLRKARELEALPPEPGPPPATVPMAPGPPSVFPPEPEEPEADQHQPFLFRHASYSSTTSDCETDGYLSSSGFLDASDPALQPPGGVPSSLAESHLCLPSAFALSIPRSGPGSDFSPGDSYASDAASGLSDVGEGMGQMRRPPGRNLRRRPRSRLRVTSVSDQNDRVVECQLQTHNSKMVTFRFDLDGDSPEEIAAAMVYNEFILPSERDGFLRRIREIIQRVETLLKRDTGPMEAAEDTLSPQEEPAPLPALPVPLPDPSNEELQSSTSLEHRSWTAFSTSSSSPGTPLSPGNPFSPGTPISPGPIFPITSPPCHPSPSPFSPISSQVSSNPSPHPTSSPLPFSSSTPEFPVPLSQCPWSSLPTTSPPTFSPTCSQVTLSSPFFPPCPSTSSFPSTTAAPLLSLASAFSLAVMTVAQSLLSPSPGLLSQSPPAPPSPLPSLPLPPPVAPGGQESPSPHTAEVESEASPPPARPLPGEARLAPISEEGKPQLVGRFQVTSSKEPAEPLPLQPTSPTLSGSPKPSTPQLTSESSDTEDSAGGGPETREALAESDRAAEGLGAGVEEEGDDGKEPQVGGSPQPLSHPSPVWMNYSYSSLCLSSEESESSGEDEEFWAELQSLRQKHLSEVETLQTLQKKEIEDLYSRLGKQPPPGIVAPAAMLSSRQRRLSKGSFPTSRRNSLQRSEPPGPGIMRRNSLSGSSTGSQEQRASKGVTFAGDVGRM
UniProt Q96P53: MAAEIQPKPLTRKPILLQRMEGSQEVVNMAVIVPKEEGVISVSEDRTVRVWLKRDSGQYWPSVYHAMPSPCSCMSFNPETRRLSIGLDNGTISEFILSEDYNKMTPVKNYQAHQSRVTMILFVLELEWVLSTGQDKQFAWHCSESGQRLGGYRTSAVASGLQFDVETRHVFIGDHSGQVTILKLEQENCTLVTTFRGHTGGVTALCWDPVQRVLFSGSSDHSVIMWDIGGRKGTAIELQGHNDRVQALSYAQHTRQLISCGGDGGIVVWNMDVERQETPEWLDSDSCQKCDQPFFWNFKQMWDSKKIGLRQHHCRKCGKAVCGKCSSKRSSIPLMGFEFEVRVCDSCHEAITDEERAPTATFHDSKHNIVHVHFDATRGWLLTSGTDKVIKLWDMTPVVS

Columns and labels:
Assay in all cases: log2 fold change, soluble protein after heating vs DMSO (PISA); higher = thermal stabilisation; K562 cells, 10 uM, 30 min; active = over 0.2 and 3.5 SD of the protein, either way, in both replicates (recomputed)
[1] = compound: CC1=CC=C(C=C1)SC2=C3C=C(SC3=CN=C2)C(=O)N
Method in brief: (§1)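 For each measurement, 10 μM compound was applied for 30 min to K562 cells at 2×10^6 cells/mL. Aliquots were heated for 3 min across 48°C-58°C, pooled, and extracted in PBS with 0.5% NP-40 at 4°C; the supernatant after 21,000xg for 90 min was soluble protein. This was quantified by TMTpro 16plex LC-MS/MS with channel sums equalised, and thermal stability was reported relative to control samples from duplicates, on a log2 fold-change scale.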

[2] = compound: CC1=NC(=CC=C1)C2=C(N=C(N2)C(C)(C)C)C3=CC4=NC=CN=C4C=C3
Method in brief: as §1

Nexturastat A = compound: CCCCN(Cc1ccc(C(=O)NO)cc1)C(=O)Nc1ccccc1 [Nexturastat A]
Method in brief: as §1

[3] = compound: CCCS(=O)(=O)Nc1ccc(F)c(C(=O)c2c[nH]c3ncc(Cl)cc23)c1F
Method in brief: as §1

[4] = compound: CCCc1cc(C)[nH]c(=O)c1CNC(=O)c1cc(-c2ccnc(N3CCN(C)CC3)c2)cc2c1cnn2C(C)C
Method in brief: as §1

givinostat = compound: CCN(CC)Cc1ccc2cc(COC(=O)Nc3ccc(C(=O)NO)cc3)ccc2c1 [givinostat]
Method in brief: as §1

barasertib = compound: CCN(CCCOc1ccc2c(Nc3cc(CC(=O)Nc4cccc(F)c4)[nH]n3)ncnc2c1)CCOP(=O)(O)O [barasertib]
Method in brief: as §1

[5] = compound: CC[C@@H]1C(=O)N(C)c2cnc(Nc3ccc(C(=O)NC4CCN(C)CC4)cc3OC)nc2N1C1CCCC1
Method in brief: as §1

volasertib = compound: CC[C@@H]1C(=O)N(C)c2cnc(Nc3ccc(C(=O)N[C@H]4CC[C@H](N5CCN(CC6CC6)CC5)CC4)cc3OC)nc2N1C(C)C [volasertib]
Method in brief: as §1

[6] = compound: CC[C@H](C)N1C=C(C2=C(C=C(C=C21)C3=CN=C(C=C3)N4CCNCC4)C(=O)NCC5=C(C=C(NC5=O)C)C)C
Method in brief: as §1

epoxomicin = compound: CC[C@H](C)[C@@H](C(=O)N[C@@H]([C@@H](C)O)C(=O)N[C@@H](CC(C)C)C(=O)[C@]1(CO1)C)NC(=O)[C@H]([C@@H](C)CC)N(C)C(=O)C [epoxomicin]
Method in brief: as §1

[7] = compound: CCn1c(C(=O)N(C2CC2)C2CC2)cc2c3c(ncn3C)c(Nc3cc(C)n(C)n3)nc21
Method in brief: as §1

[8] = compound: CCn1cc(-c2ccnc3[nH]c(-c4cccc(CN(C)C)c4)cc23)c(-c2ccc(NC(=O)N(C)C)cc2)n1
Method in brief: as §1

rosiglitazone = compound: CN(CCOC1=CC=C(C=C1)C[C@H]2C(=O)NC(=O)S2)C3=CC=CC=N3 (racemic) [rosiglitazone]
Method in brief: as §1

[9] = compound: CN1C2=C(C3=C1C(=O)N(N=C3)CC4=CC(=CC=C4)N)SC(=C2)S(=O)C
Method in brief: as §1

[10] = compound: CN1CCC(CNc2ccc3ncc(-c4cccc(OC(F)(F)F)c4)n3n2)CC1
Method in brief: as §1

[11] = compound: CC1=C(C=C(C=C1)NC(=O)C2=CC(=CC=C2)C(C)(C)C#N)NC3=CC4=C(C=C3)N=CN(C4=O)C
Method in brief: as §1

[12] = compound: CC1=C(C=C(C=C1)NC(=O)C2=CC(=CC=C2)N(C)C)NC(=O)C3=CC=C(C=C3)O
Method in brief: as §1

vemurafenib = compound: CCCS(=O)(=O)Nc1ccc(F)c(C(=O)c2c[nH]c3ncc(-c4ccc(Cl)cc4)cc23)c1F [vemurafenib]
Method in brief: as §1

[13] = compound: CN(C)CC(=O)Nc1ccc2[nH]c(=O)c3ccccc3c2c1
Method in brief: as §1

Measured: log2 fold change

VMA21 isoform 2 (UniProt Q3ZAQ7)
inactive: [1] 0.166 | [2] 0.099 | Nexturastat A 0.128 | [3] 0.305 | [4] -0.048 | givinostat -0.045 | barasertib 0.048 | [5] 0.168 | volasertib -0.055 | [6] 0 | epoxomicin 0.108 | [7] 0.055 | [8] 0.004 | rosiglitazone -0.021 | [9] -0.017 | [10] 0.319

WARS1 (UniProt G3V339)
inactive: Nexturastat A 0.188 | epoxomicin -0.238

WARS1 (UniProt G3V3P2)
inactive: [11] -0.055 | barasertib -0.255

VLDLR (UniProt P98155)
inactive: [11] -0.108 | Nexturastat A 0.081 | [4] -0.009 | [6] -0.024 | epoxomicin 0.049 | [8] 0.081 | [10] -0.277

WDR54 isoform 4 (UniProt Q9H977)
inactive: [6] 0.145 | [9] -0.233

Reprinted from the listing (4 entries):
WARS1 (UniProt G3V339)
inactive: Nexturastat A 0.188 | epoxomicin -0.238

WARS1 (UniProt G3V3P2)
inactive: [11] -0.055 | barasertib -0.255

VLDLR (UniProt P98155)
inactive: [11] -0.108 | Nexturastat A 0.081 | [4] -0.009 | [6] -0.024 | epoxomicin 0.049 | [8] 0.081 | [10] -0.277

WDR54 isoform 4 (UniProt Q9H977)
inactive: [6] 0.145 | [9] -0.233

Remaining list, next part:

VEGFA (UniProt H0YBI8)
inactive: [12] 0.017 | [1] -0.065 | [2] -0.118 | vemurafenib 0.037 | [3] -0.372 | [4] -0.141 | givinostat 0.104 | barasertib -0.081 | [5] 0.442 | volasertib 0.212 | [6] 0.264 | [7] 0.064 | [13] -0.144 | rosiglitazone -0.057 | [9] -0.075

WDR91 (UniProt A4D1P6)
inactive: [12] -0.024 | [1] -0.033 | [2] -0.059 | Nexturastat A 0.103 | vemurafenib 0.108 | [3] 0.019 | [4] 0 | barasertib -0.013 | [5] -0.067 | volasertib -0.247 | epoxomicin -0.074 | [13] -0.047 | rosiglitazone -0.048 | [9] 0.141

WWP2 (UniProt O00308)
inactive: [2] 0.164 | Nexturastat A 0.434 | epoxomicin 0.077

WAC (UniProt Q9BTA9)
inactive: [1] 0.05 | [2] 0.034 | [3] 0.238 | volasertib -0.244 | [8] -0.089 | [10] -0.031

VPS13A isoform 4 (UniProt Q96RL7)
inactive: [12] -0.048 | [1] 0.067 | [3] -0.107 | givinostat 0.11 | volasertib -0.085 | [7] -0.143

VIRMA (UniProt Q69YN4)
inactive: [12] -0.017 | [2] 0.054 | Nexturastat A 0.076 | givinostat 0.01 | barasertib -0.037 | [5] 0.091 | [6] 0.042 | epoxomicin -0.142 | [7] -0.147 | [8] 0.176 | rosiglitazone 0.127 | [10] -0.075

WIPI2 isoform 6 (UniProt Q9Y4P8)
inactive: [1] -0.013 | [3] 0.003 | barasertib 0.118 | [5] -0.188 | volasertib -0.077 | [8] 0.132 | rosiglitazone 0.153 | [10] -0.018

WNK4 (UniProt Q96J92)
inactive: Nexturastat A 0.363 | vemurafenib 0.248 | epoxomicin -0.187 | [13] -0.059

WBP1L isoform 2 (UniProt Q9NX94)
inactive: barasertib -0.041 | rosiglitazone -0.138

WSB1 (UniProt Q9Y6I7)
inactive: Nexturastat A -0.016 | epoxomicin 0.389

WDFY2 (UniProt Q96P53)
inactive: vemurafenib 0.066 | givinostat 0.138 | [7] -0.168 | [13] -0.072 | [9] -0.002
